The values below come from the supplement of paper PMC4604168 (melanoma cell lines).

This is one part of the list. Repeats are few or missing, and single values can be far off.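 Cells were imaged in 1,536-well plates, and nuclei stained with an antibody against cleaved PARP were counted against all DNA-stained nuclei to give the apoptosis fraction. Screening doses were chosen to leave most cells alive, and resting and induced cleaved-PARP levels differ strongly between cell lines.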

The experiment relates to SkMel28. The experiment can be described thus: cleaved PARP positive nuclei fraction relative to DMSO control; melanoma cells; higher = more apoptosis. To be noted: library dose: low library concentration; 72 h.
For `O=c1[nH]nc(Sc2ncc([N+](=O)[O-])s2)n1-c1ccc2c(c1)OCCO2` + CCCCCCCCCCCC1=C(O)C(=O)C=C(O)C1=O [Embelin] (first compound 0.2 µM, partner dose 1.2 µM), the “cleaved PARP positive nuclei fraction” value is 88.1%.

Take `O=c1[nH]nc(Sc2ncc([N+](=O)[O-])s2)n1-c1ccc2c(c1)OCCO2` + O=C(Nc1cccc(Cl)c1)Nc1ncc(CCNc2ncnc3ccsc23)s1 [SNS314] (first compound 0.2 µM, partner dose 0.0008 µM): the “cleaved PARP positive nuclei fraction” value amounted to 28.5%.

For the molecule `CCCCCCCCCCCCCCCCCCOP(=O)([O-])OC1CC[N+](C)(C)CC1` [Perifosine] + NC(=O)Nc1cc(-c2cccc(F)c2)sc1C(=O)N[C@H]1CCCNC1 [AZD7762] (first compound 0.4 µM, partner dose 0.02 µM), the “cleaved PARP positive nuclei fraction” value was 51.4%.

In the case of `COc1cc([C@@H]2c3cc4c(cc3[C@@H](O[C@@H]3O[C@@H]5CO[C@@H](C)O[C@H]5[C@H](O)[C@H]3O)[C@H]3COC(=O)[C@H]23)OCO4)cc(OC)c1O` [etoposide] + COc1cc(N2CCC(N3CCN(C)CC3)CC2)ccc1Nc1ncc(Cl)c(Nc2ccccc2S(=O)(=O)C(C)C)n1 [NVP-TAE684] (first compound 0.02 µM, partner dose 0.08 µM), the “cleaved PARP positive nuclei fraction” value was determined as 79.6%.

Take `Cc1cc(Nc2cc(N3CCN(C)CC3)nc(Sc3ccc(NC(=O)C4CC4)cc3)n2)n[nH]1` [Tozasertib] + COc1cc(N2CCC(N3CCN(C)CC3)CC2)ccc1Nc1ncc(Cl)c(Nc2ccccc2S(=O)(=O)C(C)C)n1 [NVP-TAE684] (first compound 0.006 µM, partner dose 0.08 µM): the “cleaved PARP positive nuclei fraction” value was 92.4%.

On to `CCCCCCCCCCCCCCCCCCOP(=O)([O-])OC1CC[N+](C)(C)CC1` [Perifosine] + O=S(=O)(c1ccccc1)N(CC(F)(F)F)c1ccc(C(O)(C(F)(F)F)C(F)(F)F)cc1 [T0901317] (first compound 0.4 µM, partner dose 1.4 µM), for which the “cleaved PARP positive nuclei fraction” value turned out to be 47.7%.

`CC[C@]1(O)C[C@H]2CN(CCc3c([nH]c4ccccc34)[C@@](C(=O)OC)(c3cc4c(cc3OC)N(C=O)[C@H]3[C@@](O)(C(=O)OC)[C@H](OC(C)=O)[C@]5(CC)C=CCN6CC[C@]43[C@@H]65)C2)C1` [vincristine] + Cn1cncc1[C@@](N)(c1ccc(Cl)cc1)c1ccc2c(c1)c(-c1cccc(Cl)c1)cc(=O)n2C [tipifarnib] (first compound 0.0001 µM, partner dose 0.01 µM): the “cleaved PARP positive nuclei fraction” value was determined as 430%.

In the case of `Cc1cn(-c2cc(NC(=O)c3ccc(C)c(Nc4nccc(-c5cccnc5)n4)c3)cc(C(F)(F)F)c2)cn1` [nilotinib] + CN(NC(=O)CC(=O)NN(C)C(=S)c1ccccc1)C(=S)c1ccccc1 [STA4783] (first compound 0.2 µM, partner dose 0.006 µM), the “cleaved PARP positive nuclei fraction” value was 198%.

For the molecule `O=C(/C=C/c1cccnc1)NCCCCC1CCN(C(=O)c2ccccc2)CC1` + O=C(Nc1ccccc1)c1cc([N+](=O)[O-])ccc1Cl [GW9662] (first compound 0.01 µM, partner dose 2 µM), the “cleaved PARP positive nuclei fraction” value was 96.5%.

On to `CC[C@]1(O)C[C@H]2CN(CCc3c([nH]c4ccccc34)[C@@](C(=O)OC)(c3cc4c(cc3OC)N(C=O)[C@H]3[C@@](O)(C(=O)OC)[C@H](OC(C)=O)[C@]5(CC)C=CCN6CC[C@]43[C@@H]65)C2)C1` [vincristine] + O=c1cc(-c2cccc3c2Sc2ccccc2S3)oc(N2CCOCC2)c1 [KU55933] (first compound 0.0001 µM, partner dose 1 µM), for which the “cleaved PARP positive nuclei fraction” value came out at 591%.

Regarding `N#CC[C@H](C1CCCC1)n1cc(-c2ncnc3[nH]ccc23)cn1` [ruxolitinib] + NCC(=O)Nc1ccc(-n2nc(C(F)(F)F)cc2-c2ccc3c(ccc4ccccc43)c2)cc1 [OSU03012] (first compound 1 µM, partner dose 1 µM), the “cleaved PARP positive nuclei fraction” value worked out at 167%.

For `O=c1[nH]nc(Sc2ncc([N+](=O)[O-])s2)n1-c1ccc2c(c1)OCCO2` + CC(C)CCN1c2nc(Nc3cc(F)c(O)c(F)c3)ncc2N(C)C(=O)C1C [BID1870] (first compound 0.2 µM, partner dose 0.2 µM), the “cleaved PARP positive nuclei fraction” value is 140%.

Take `Cc1cn(-c2cc(NC(=O)c3ccc(C)c(Nc4nccc(-c5cccnc5)n4)c3)cc(C(F)(F)F)c2)cn1` [nilotinib] + O=C(Nc1cccc(Cl)c1)Nc1ncc(CCNc2ncnc3ccsc23)s1 [SNS314] (first compound 0.2 µM, partner dose 0.0008 µM): the “cleaved PARP positive nuclei fraction” value is 161%.

Regarding `Cc1ccc(Nc2nccc(N(C)c3ccc4c(C)n(C)nc4c3)n2)cc1S(N)(=O)=O` [Pazopanib] + O=S(=O)(c1ccccc1)N(CC(F)(F)F)c1ccc(C(O)(C(F)(F)F)C(F)(F)F)cc1 [T0901317] (first compound 0.4 µM, partner dose 1.4 µM), the “cleaved PARP positive nuclei fraction” value came out at 198%.

In the case of `CCCCCCCCCCCCCCCCCCOP(=O)([O-])OC1CC[N+](C)(C)CC1` [Perifosine] + CC(C)(C)c1cnc(CSc2cnc(NC(=O)C3CCNCC3)s2)o1 [SNS-032] (first compound 0.4 µM, partner dose 0.01 µM), the “cleaved PARP positive nuclei fraction” value worked out at 99.9%.
